The text below walks through data of publication PMC8155045.

No constants are given. Whether binding was seen depends on the method and setting. For some assays here: Binding seen in cells or lysates may run through a third protein. Tags and fused reporters may be left off the sequences shown.

In one test the target is T1, mCherry-YB (UniProt P25208).
T1 sequence: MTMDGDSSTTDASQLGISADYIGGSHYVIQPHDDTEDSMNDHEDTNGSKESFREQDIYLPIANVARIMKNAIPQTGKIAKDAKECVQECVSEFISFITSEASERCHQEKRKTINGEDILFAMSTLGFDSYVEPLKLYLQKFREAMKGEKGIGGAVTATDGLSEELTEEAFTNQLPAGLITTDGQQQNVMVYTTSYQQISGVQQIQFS
Nature of the test: FRET or BRET; FLIM-FRET (phasor analysis) in nuclei of live HeLa cells, eGFP donor and mCherry acceptor, all three NF-Y subunits transfected (third one untagged), 24 h after transfection, 37 degrees, 5% CO2. In general terms: BRET reads energy transfer from a luciferase to a nearby fluorophore.

A further test addresses EGFP-YB (UniProt P25208). Nature of the test: Number and Brightness (NB) analysis; apparent brightness of eGFP-tagged subunit in nuclei of live HeLa cells against monomeric eGFP and 5GFP controls, 37 degrees, 5% CO2.

B1: EGFP-YB (protein, UniProt P25208 1-207)
chain: T1 sequence
For B1, the binding result in the test with mCherry-YB and with EGFP-YB was “no binding” in each case.
